Test results as given in PubChem BioAssay AID1471 (National Center for Advancing Translational Sciences (NCATS), 2008).
Values joined by “and” are separate entries in the source; they are usually repeats but may differ in a detail not shown here. Equal entries are not always repeated. Hit rate of the full screen: of about 230,000 compounds, about 310 (0.13%) were called active. Inconclusive results, whose numbers are uncertain, are shown with a selection of clear calls. Calls come from the whole dose curve; as a rule, active = well fitted activation curve with a large enough effect; inconclusive = small, poorly fitted or top-dose-only effect; inactive = no such curve, though single readings can be large or run the other way. A potency beside an inconclusive call is a rough fit, not a confirmed value.

Assay: qHTS Multiplex Assay to Identify Dual Action Probes in a Cell Model of Huntington: Cytoprotection (ATP); note: nearly all actives have a fitted effect of over 45% in size;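 for cytoprotection (ATP increase): toxic huntingtin expression switched on by the ecdysone agonist tebufenozide; % of control where 0% means no effect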
Conditions: PC12 HTT-Q103 induced, ATP luminescence, 40 h; cytoprotection (ATP increase): at 56.4 µM (top of the series) unless noted
Procedure, shortened: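 Compounds added alongside 100 nM tebufenozide, which induces toxic Q103 huntingtin exon 1-GFP in stable PC12 cells; surviving cells quantified by luminescent ATP measurement. Medium: phenol red-free DMEM, 5% equine and 5% calf serum.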
Potency is the fitted concentration of half-maximal effect.

Compound | Potency | cytoprotection (ATP increase)
O=C(O)c1ccc(-n2nc(C(F)(F)F)c3c2CCCC3)cc1 | inconclusive: 3.55 µM [activator, partial curve] | 
Cc1c(Cl)cccc1NC(=S)Nn1cnnc1 | inconclusive: 0.005 µM [activator, full curve, poor fit] | 
O=C(COC(=O)C1CC1)Nc1ncc(C(F)(F)F)cc1Cl | inconclusive: 3.16 µM [activator, single point] | 
C[N+](C)(C)CCOC(N)=O | inconclusive: 1.3 nM [activator] and inconclusive: 2.51 µM [activator, partial curve, poor fit] | 
Cc1cc(NC(=O)COc2cccc(Oc3ccccc3)c2)no1 |  | inactive: -10.7% [at 1.9 µM]
CC(C)(C)NC[C@H](O)COc1cccc2c1CCCC2=O | inconclusive: 0.355 µM [activator, single point] | 
COCCn1c(=O)[nH]c(=O)c2c1nc(-c1ccc(-c3ccc(Cl)cc3[N+](=O)[O-])o1)n2Cc1ccccc1 | inconclusive: 5.62 µM [activator, single point] | 
Cn1c(=O)c2cc3c(nc2n(C)c1=O)CC(c1ccccc1)CC3=O (stereo not drawn) |  | inactive: -4.26% [at 10 µM]
CCNc1nc(Oc2c(Cl)cccc2Cl)cc(C(F)(F)F)n1 | inconclusive: 10 µM [activator, partial curve, poor fit] | 
Cn1cnnc1SCC(=O)OCN1C(=O)c2ccccc2C1=O |  | inactive: -16.8%
CC(=O)Nc1ccc(OC[C@@H](O)CNC(C)C)cc1 | inconclusive: 1.41 µM [activator, full curve] and inconclusive: 39.8 µM [activator, single point] | 
CCOc1ccc(-n2nnc3c(=O)n(CC(=O)c4ccccc4)cnc32)cc1 |  | inactive: -0.534% [at 10 µM]
COC(=O)[C@H]1O[C@@H](c2cc(OC)c(C)c(OC)c2O)[C@H](C)[C@@H](O)[C@H]1C | inconclusive: 8.91 µM [activator, partial curve, poor fit] | 
CC(NC(=S)NCCCN1CCOCC1)C1CC2CCC1C2 (stereo not drawn) |  | inactive: 4.01% [at 10 µM]
CS(=O)(=O)Nc1ccccc1C(=O)O |  | inactive: -0.424%
COc1ccc(CN2CCN(C(=O)C3CCN(S(=O)(=O)c4cccs4)CC3)CC2)c(OC)c1OC |  | inactive: 6.85%
CCOC(=O)N1CC(=O)Nc2ccc(Br)cc2C1c1ccccc1 (stereo not drawn) | inconclusive: 0.562 µM [activator, single point] | 
COc1ccc(NS(=O)(=O)c2ccc(OC)c(NC(=O)CCC3CCCCC3)c2)cc1 | inconclusive: 5.62 µM [activator, partial curve] | 

Some values from the entries so far:
`Cn1c(=O)c2cc3c(nc2n(C)c1=O)CC(c1ccccc1)CC3=O` (stereo not drawn) | cytoprotection (ATP increase): inactive: -4.26% [at 10 µM]
`CC(NC(=S)NCCCN1CCOCC1)C1CC2CCC1C2` (stereo not drawn) | cytoprotection (ATP increase): inactive: 4.01% [at 10 µM]
